Consider one molecule from article PMC8541823.

The assay has as its target CG31030-V5 (Drosophila melanogaster (endogenous in fly heads)). Description: affinity purification with mass spectrometry; anti-V5-tag mAb magnetic beads on lysates of ~200 heads of CG31030^V5 flies against w^1118 control; 50 mM Tris-HCl pH 7.4, 2 mM EDTA, 150 mM NaCl, 0.5% IGEPAL CA-630, 10% glycerol; 4 h at 4°C; on-bead trypsin digest, nano LC-MS/MS, label-free quantification; three independent experiments, hits at least 2-fold over control in all three.

No constants are given. Whether binding was seen depends on the method and setting. Binding seen in cells or lysates may run through a third protein. These calls come from enrichment with a bait or labelling near it, and not all partners need be listed.

B1: ATP6AP2 (protein, UniProt Q9VHG4 18-320)
chain: SGEFTVLNRPKAISFKGNDALESHYVGDVLYASMGNAVSGDTNWNGLTINDPFNLAKGVILVHVQGIGHVTTAGNVKTYELTGSGTDASLNALAAELEAANEPVCDINFEQFDDGVQAWKSCFGDFEAPAAKPTKHLNPSLHTADKQFLQEVGFINSAADHLAEMAKPSNVLMLRVSVDGVAKAHGEKSVAVEEANKLLSAAISRLLAASQKSSDSVLFVQTTEKDVAASRAKRDTIAASTTNPYNLAVYYGSDYPVIFNIILWFMVVFGLSLLAICYAIAAMDPGRDSIIYRMTSTRIKKDN
As to B1, the binding result is “binds”.
